Experimental data reported in patent US20110129473A1 (LABORATORIOS SILANES S A DE C V, published 2011).
These are yes or no findings as the source states them, for the method shown. Some results given as binding are weak or reduced against the parent protein; the word gives no strength.

Amino acid sequences for entries named in this document (tags omitted). Residues count along the entry.
UniProt P01375, residues 77-233: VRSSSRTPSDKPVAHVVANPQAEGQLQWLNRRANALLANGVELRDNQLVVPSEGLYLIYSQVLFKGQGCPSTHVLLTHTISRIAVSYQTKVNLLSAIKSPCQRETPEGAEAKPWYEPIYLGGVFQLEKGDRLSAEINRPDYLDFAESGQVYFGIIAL

Target: T1, recombinant human cytokine TNFα (human, UniProt P01375 77-233)
T1 construct: Recombinant human TNFα used for immunisation, panning and ELISA; also called human TNFα; rhTNF-α
Test: phage display selection and ELISA on coated TNFα
Experimental: Phage selection rounds, amplification and recovery: There were performed 4 rounds of phage selection with TNFα 1 μg in PBS in an ELISA plate, sealed and incubating over night at 4° C., the cytokine is eliminated and blocking with 150 μl of PBS-BSA (3%), sealed and incubated 1 hr at 37° C.; discarding and adding 50 μl of phage-antibodies for each well, sealed and incubated with TBS-Tween 20 (0.05%) 150 for each well using the pipette to agitate. The solution is discarded and the phage-antibodies specific for TNFα are harvested after adding 50 μl per well of TBS-Trypsin [10 mg/ml]. The plate is sealed and incubated during 30 minutes, 37° C. The phage-antibodies are recovered and used to infect a culture of E. coli ER2537 (2 ml) electro-compentents (DO₆₀₀=1), during 15 minutes at room temperature. The selected phage-antibodies are amplified using serial dilutions incubating the transformants in SB media with carbencillin and helper phage VCSM13 with kanamycin. The phage-antibodies were recovered from the infected cultures of ER2537 cells by centrifugations using first PEG-8000 4% and NaCl 3, and PBS_BSA 1% (2 ml) filtering the supernatant with a 0.22 μm membrane, using 50 μl para to be selected according to the TNFα binding. […]

binding: binds
B1: vNAR clone 43 (anti-TNFα vNAR from Heterodontus francisci) (protein)
chain: ASLDQTLRTATRETGESLTVNCVLYDANYGLYSTSWYRNNPGSTDREHITIGGRYVESVNKGAKSFSLQIKDMTVEDSGTYYCKARATSGYTPHDGSGTVLTVN
